Values joined by “and” are separate entries in the source; they are usually repeats but may differ in a detail not shown here. Equal values may be shown once. In all, about 300,000 compounds went through this assay and about 5,400 (1.8%) were called active. This list was built around the results that the source calls inconclusive (neither active nor inactive); the mix of calls is not that of the screen. Calls come from the whole dose curve; tested in HEK293 cells. Where the call is inconclusive, the potency comes from a doubtful curve fit.
test: qHTS for inhibitors of binding or entry into cells for Marburg Virus; details: Marburg virus pseudotyped entry inhibition, cell reporter; series mostly up to 37.8 µM
Potency is the fitted concentration of half-maximal effect.

Row | Compound | Potency
1 | Cc1ccc(N(CC(=O)N/N=C/c2ccc(OC3CSC3)cc2)S(=O)(=O)c2ccccc2)c(C)c1 | inconclusive: 22.4 µM [inhibitor, partial curve, poor fit]
2 | CC(C)N1CCN(Cc2ccccc2C(F)(F)F)CC1CCO (stereo not drawn) | inconclusive: 10 µM [inhibitor, partial curve, poor fit]
3 | CC/C(=N\NC(=O)c1ccc(N(C)C)cc1)c1ccccc1 | inactive
4 | Cc1cccc(NC(=O)c2sc(C)nc2C)c1 | inconclusive: 3.26 µM [activator, full curve, poor fit]
5 | NS(=O)(=O)c1ccc(NC(=O)COC(=O)C2(c3ccc(F)cc3)CCCC2)cc1 | inconclusive: 20 µM [inhibitor, partial curve, poor fit]
6 | COc1ccc(CN2CCN(c3ccccc3)CC2)c(C)c1C | inconclusive: 2.59 µM [inhibitor, full curve, poor fit]
7 | O=C(COC(=O)c1ccc(F)cc1F)Nc1ccc2[nH]c(=O)[nH]c2c1 | inconclusive: 22.4 µM [inhibitor, single point]
8 | Cc1cc(C)nc(-n2nc(C)cc2Nc2ccccc2)n1 | inconclusive: 6.31 µM [inhibitor, partial curve]
9 | Nc1ccc(-c2nc3ccc(-c4nc5ccc(N)cc5[nH]4)cc3[nH]2)cc1 | inactive and inconclusive: 35.5 µM [inhibitor, single point]
10 | O=C(COC(=O)c1ccc(S(=O)(=O)NCc2ccco2)cc1)NCCC1=CCCCC1 | inactive
11 | COCCn1nnnc1C(c1cc2cc(C)ccc2[nH]c1=O)N1CCc2ccccc21 (stereo not drawn) | inconclusive: 35.5 µM [inhibitor, single point]
12 | CCCC(=O)NC(=S)Nc1ccc(Cl)cn1 | inconclusive: 2.91 µM [activator, single point]
13 | CCN(C(=O)CN1CCN(c2ccc(OC)cc2)CC1)c1c(N)n(Cc2ccccc2)c(=O)[nH]c1=O | inactive
14 | CCC1(c2ccccc2)NC(=O)N(CC(=O)N(C)CC(=O)Nc2cccc(OC)c2)C1=O (stereo not drawn) | inconclusive: 10 µM [inhibitor, partial curve, poor fit]
15 | CCN(CC)C(=O)Oc1ccc2oc(=O)cc(-c3cc4cccc(OC)c4o3)c2c1 | inconclusive: 25.1 µM [inhibitor, single point]
16 | O=C(COc1ccc2ccccc2c1)NN1C(=O)c2ccccc2C1=O | inconclusive: 6.51 µM [inhibitor, partial curve, poor fit]
17 | CC1CCN(S(=O)(=O)c2ccc(NC(=O)c3ccccc3F)cc2)CC1 | inactive
18 | CC(=O)Nc1cccc(OCC(=O)/C=C2\N(C)c3ccccc3C2(C)C)c1 | inconclusive: 35.5 µM [inhibitor, single point]
19 | O=C(CC(Nc1cccc(Cl)c1Cl)C(=O)OCC(=O)c1cccs1)c1ccccc1 (stereo not drawn) | inconclusive: 10 µM [activator, partial curve, poor fit]
20 | CCN(CC)C(=O)c1sc2nc(N3CCOCC3)c3c(c2c1N)CCCC3 | inactive
21 | c1ccc(-c2nc(-c3ccccn3)nc(-c3ccccn3)n2)nc1 | inactive
22 | c1ccc(Cn2nc(-c3ccccc3)nc2-c2ccccc2)cc1 | inconclusive: 8.91 µM [activator, single point]

Row | Compound | Potency
23 | COc1cc(NC(=O)c2cc(-c3ccco3)on2)cc(OC)c1OC | inconclusive: 1.41 µM [inhibitor, full curve, poor fit]
24 | O=C(c1ccccc1)N1CCN(c2ncnc3sc4c(c23)CCC4)CC1 | inconclusive: 4.11 µM [inhibitor, full curve, poor fit]
25 | C=CCn1c(SCC(=O)N2CCc3ccccc3C2)nc2ccccc2c1=O | inactive
26 | O=C(c1ccccc1)c1ccc2ccccc2n1 | inactive
27 | COc1ccc(C(=O)Nc2ccc(N3CCN(C(=O)C(C)C)CC3)cc2)cc1[N+](=O)[O-] | inconclusive: 35.5 µM [activator, single point]
28 | O=C(NCCCN1CCCC1)c1cc2c(Cl)nc3ccccc3c2s1 | active: 10 µM
29 | COc1ccc(-c2ccc(CNc3ccc4[nH]c(=O)[nH]c4c3)o2)cc1Cl | inconclusive: 10 µM [inhibitor, partial curve, poor fit]
30 | CC1Cc2cc(S(=O)(=O)N3CCC(C(=O)N4CCN(c5ccccc5F)CC4)CC3)ccc2N1C(=O)C1CC1 (stereo not drawn) | inconclusive: 15.8 µM [inhibitor, single point]
31 | CC1CCCN(c2nc(NCc3ccco3)nc(N)c2[N+](=O)[O-])C1 (stereo not drawn) | inconclusive: 2.82 µM [inhibitor, partial curve, poor fit]
32 | CCCCNC(=O)N(C)c1nncnc1C(=O)NC | inactive
33 | CC1(C)C2CCC1(C)C(SC(=N)N)C2 (stereo not drawn) | inconclusive: 20 µM [inhibitor, single point]
34 | NS(=O)(=O)c1ccc(NC(=S)NC(=O)c2ccc(Br)o2)cc1 | inactive
35 | CC1CC(C)CN(CCCNC(=O)c2ccc(CS(=O)(=O)Cc3ccccc3F)o2)C1 (stereo not drawn) | inactive
36 | CCCCC(Sc1nc(N)c(NC(=O)c2ccc(OC)cc2)c(=O)[nH]1)C(=O)O (stereo not drawn) | inactive
37 | COc1ccc2oc(C(=O)NC(C)(C)C)c(C)c2c1 | inactive
38 | O=C(c1nnsc1S(=O)(=O)c1ccc(Cl)cc1)N1CCOCC1 | inconclusive: 4.47 µM [inhibitor, partial curve]
39 | CCC1CCC/C1=N\NC(=O)c1ccccc1Cl (stereo not drawn) | inconclusive: 6.31 µM [inhibitor, single point]
40 | CC1CCC2(CC1)NC(=O)N(CC(=O)c1ccc(Cl)s1)C2=O (stereo not drawn) | inconclusive: 1.78 µM [activator, partial curve, poor fit]
41 | COc1cccc(NC(=O)c2sc3nc(C)c(C(=O)Nc4ccc(C)cc4C)c(-c4sccc4C)c3c2N)c1 | inconclusive: 0.631 µM [inhibitor, full curve, poor fit]
42 | CCOC(=O)CSc1nc(-c2ccccn2)ncc1OC | inactive
43 | Cc1sc2ncnc(SCc3ccco3)c2c1C | inconclusive: 3.16 µM [inhibitor, partial curve, poor fit]

Compounds from the list above that have a nitro group on carbon (two):
Row | Compound | Potency
27 | COc1ccc(C(=O)Nc2ccc(N3CCN(C(=O)C(C)C)CC3)cc2)cc1[N+](=O)[O-] | inconclusive: 35.5 µM [activator, single point]
31 | CC1CCCN(c2nc(NCc3ccco3)nc(N)c2[N+](=O)[O-])C1 (stereo not drawn) | inconclusive: 2.82 µM [inhibitor, partial curve, poor fit]

Source: PubChem BioAssay AID540276 (National Center for Advancing Translational Sciences (NCATS), 2011)
